Values from PubChem BioAssay AID686938 (Drosophila RNAi Screening Center, 2013).

- Test: 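Looking for CRAC channel components and the factors controlling them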 (primary screen)
- System: Drosophila S2R+ cells
- Reagents: long dsRNA against Drosophila genes, about 0.25 µg dsRNA per well, roughly 10,000 cells
- Timing: 5 days of knock-down before the calcium assay
- Challenge: thapsigargin (SERCA pump blocker) to empty calcium stores; entry signal taken 4 min after adding it
- Detection: 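Per-well fluo-4 fluorescence in two replicates, unnormalised, measured in resting cells and 4 min after store depletion by the SERCA blocker thapsigargin; ratio of the two present in few wells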
- Direction: calcium entry signal: higher = stronger calcium signal after store depletion; resting calcium signal: higher = higher resting calcium signal
- Rule for the call: 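Hit if the duplicate-averaged plate z-score for entry over resting signal is under −3; wells with weak total dye signal (Fmax z < −2) or more than 5 off-targets removed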
- Meaning of the calls: active = strongly reduced calcium entry; inactive = no strong reduction
The screen tested about 23,000 reagents; shown is a random part of those with a known target gene and a result. Over the whole deposit, 75 (0.33%) were called active. 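Raw plate signals without normalisation; calls rest on plate z-scores that were not deposited; ratio present for only 364 wells.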 A plus sign joins genes that one reagent is predicted to hit. The record does not give: the dose of the treatment.

Gene,DRSC id,"calcium entry signal, replicate 1 (fluorescence units)","calcium entry signal, replicate 2 (fluorescence units)","resting calcium signal, replicate 1 (fluorescence units)","resting calcium signal, replicate 2 (fluorescence units)",Call
mwh (multiple wing hairs),DRSC07949,4.66e7,4.36e7,2.10e7,1.92e7,inactive
mwh (multiple wing hairs),DRSC08382,2.88e7,2.79e7,1.35e7,1.19e7,inactive
"ATPsyndelta (ATP synthase, delta subunit)",DRSC18248,3.11e7,4.33e7,1.93e7,2.09e7,inactive
Pex11c (Peroxin 11c),DRSC14677,3.26e7,5.80e7,1.93e7,2.28e7,inactive
CG14174,DRSC10175,2.83e7,4.33e7,1.59e7,2.07e7,inactive
CG3558,DRSC00615,3.94e7,,2.41e7,,inactive
CG30082,DRSC22945,3.42e7,4.28e7,1.66e7,1.83e7,inactive
CG33673,DRSC00084,4.74e7,3.23e7,2.33e7,1.55e7,inactive
cno (canoe),DRSC12054,2.01e7,3.05e7,1.05e7,1.40e7,inactive
cno (canoe),DRSC12374,2.36e7,1.93e7,1.49e7,1.06e7,inactive
cno (canoe),DRSC22980,3.69e7,2.77e7,1.46e7,1.14e7,inactive
dre4,DRSC08714,1.58e7,1.86e7,9.58e6,1.03e7,inactive
Ubqn (Ubiquilin),DRSC19581,2.31e7,2.48e7,1.22e7,1.17e7,inactive
CG31231,DRSC13308,3.85e7,3.15e7,2.18e7,1.65e7,inactive
Cpsf160 (Cleavage and polyadenylation specificity factor 160),DRSC05968,2.74e7,3.64e7,1.48e7,1.69e7,inactive
CG3277,DRSC00588,2.91e7,2.71e7,1.44e7,1.42e7,inactive
Nulp1 (Nuclear localized protein 1),DRSC09677,5.68e7,4.93e7,3.61e7,1.94e7,inactive
Su(Tpl) (Suppressor of Triplolethal),DRSC10954,3.34e7,3.61e7,1.42e7,2.15e7,inactive
CG34320 (retired record),DRSC17682,4.72e7,3.49e7,2.17e7,1.58e7,inactive
sosie,DRSC14636,2.43e7,3.74e7,1.47e7,1.57e7,inactive
sosie,DRSC21382,4.08e7,3.35e7,2.23e7,1.61e7,inactive
ymp (yellow-emperor),DRSC13720,2.90e7,2.95e7,1.36e7,1.46e7,inactive
ymp (yellow-emperor),DRSC14482,3.09e7,3.86e7,1.42e7,1.75e7,inactive
CG3107,DRSC04888,3.30e7,,1.63e7,,inactive
Os-C,DRSC16778,4.74e7,3.35e7,2.27e7,1.75e7,inactive
l(3)72Dn (lethal (3) 72Dn),DRSC10468,2.37e7,2.84e7,1.39e7,2.25e7,inactive
prt (portabella),DRSC16894,4.71e7,4.87e7,2.13e7,2.15e7,inactive
lncRNA:CR43270 (long non-coding RNA::CR43270),DRSC11575,4.03e7,3.19e7,2.19e7,1.48e7,inactive
CG13385,DRSC02259,3.54e7,4.19e7,1.67e7,1.90e7,inactive
CG10184,DRSC14204,4.36e7,4.29e7,2.03e7,2.03e7,inactive
Nepl9 (Neprilysin-like 9),DRSC02255,3.64e7,2.16e7,1.73e7,1.11e7,inactive
Apc2 (Adenomatous polyposis coli 2),DRSC14115,2.99e7,3.17e7,1.43e7,1.30e7,inactive
RnrL (Ribonucleoside diphosphate reductase large subunit),DRSC03413,3.01e7,,2.06e7,,inactive
CG6665,DRSC07006,3.58e7,4.05e7,1.69e7,1.98e7,inactive
muc (midline uncoordinated),DRSC02832,4.03e7,3.72e7,1.98e7,1.83e7,inactive
muc (midline uncoordinated),DRSC21940,4.28e7,6.44e7,2.04e7,3.23e7,inactive
CG17327,DRSC15225,1.99e7,2.72e7,1.01e7,4.68e7,inactive
CG5561,DRSC00688,4.59e7,5.41e7,2.08e7,2.36e7,inactive
wry (weary),DRSC00352,3.15e7,3.71e7,1.53e7,1.67e7,inactive
wry (weary),DRSC00456,3.15e7,3.78e7,1.55e7,1.79e7,inactive
wry (weary),DRSC22414,3.00e7,3.44e7,1.45e7,1.48e7,inactive
CG15117,DRSC06539,2.61e7,2.05e7,1.22e7,1.09e7,inactive
CG34136,DRSC01833,1.66e7,3.24e7,8.01e6,2.74e7,inactive
Rs1,DRSC05945,3.70e7,2.60e7,1.66e7,1.45e7,inactive
Vps35 (Vacuolar protein sorting 35),DRSC04519,2.70e7,,1.55e7,,inactive
CG13323,DRSC06360,2.09e7,3.36e7,1.07e7,1.41e7,inactive
Cyp9b1 (Cytochrome P450 9b1),DRSC07389,3.94e7,4.69e7,1.91e7,2.08e7,inactive
"DCTN1-p150 (Dynactin 1, p150 subunit)",DRSC11175,2.70e7,3.73e7,1.19e7,2.60e7,inactive
RhoGAP18B (Rho GTPase activating protein at 18B),DRSC19763,5.45e7,4.54e7,2.55e7,2.10e7,inactive
RhoGAP18B (Rho GTPase activating protein at 18B),DRSC20047,5.23e7,5.16e7,2.58e7,2.17e7,inactive
RhoGAP18B (Rho GTPase activating protein at 18B),DRSC20048,5.13e7,4.70e7,2.66e7,2.13e7,inactive
RhoGAP18B (Rho GTPase activating protein at 18B),DRSC20049,4.82e7,4.90e7,2.23e7,2.00e7,inactive
CG31161,DRSC16144,4.35e7,5.79e7,1.95e7,2.27e7,inactive
Lcp65Aa,DRSC11209,2.85e7,3.92e7,1.34e7,1.60e7,inactive
CG32713,DRSC22766,3.63e7,3.92e7,2.05e7,1.77e7,inactive
Tbc1d22 (TBC1 domain family member 22),DRSC15867,4.17e7,3.77e7,1.88e7,1.69e7,inactive
CG18599,DRSC15357,4.60e7,4.12e7,4.53e7,1.97e7,inactive
CG18599,DRSC22585,2.03e7,3.82e7,1.23e7,2.10e7,inactive
CG18599,DRSC23121,4.04e7,4.04e7,1.85e7,1.95e7,inactive
CG43068,DRSC05538,4.44e7,5.56e7,2.04e7,2.21e7,inactive
CG14072,DRSC02375,2.96e7,3.73e7,1.44e7,1.58e7,inactive
AMPKalpha (AMP-activated protein kinase alpha subunit),DRSC18714,4.39e7,5.43e7,2.19e7,2.59e7,inactive
CG18507,DRSC01334,4.40e7,4.12e7,2.11e7,1.83e7,inactive
CG18507,DRSC01914,3.86e7,2.65e7,1.64e7,1.27e7,inactive
CG14196,DRSC19551,5.86e7,4.90e7,2.81e7,2.31e7,inactive
CG9016,DRSC03127,2.91e7,3.53e7,1.52e7,1.61e7,inactive
CG13506,DRSC04150,2.07e7,2.90e7,1.20e7,1.32e7,inactive
Ass + CG31286,DRSC12493,4.49e7,3.00e7,2.21e7,1.50e7,inactive
CG13062,DRSC09945,4.84e7,5.04e7,1.97e7,2.30e7,inactive
Arl5 (ADP-ribosylation factor-like 5),DRSC10785,3.43e7,2.82e7,2.41e7,1.14e7,inactive
CG32988,DRSC02692,2.37e7,3.11e7,1.06e7,1.36e7,inactive
feo (fascetto),DRSC19398,3.39e7,2.14e7,2.01e7,1.33e7,inactive
CG33003,DRSC22419,4.42e7,3.33e7,2.07e7,1.37e7,inactive
Diedel2 (Diedel 2),DRSC13952,3.47e7,3.92e7,1.76e7,2.07e7,inactive
CG13321,DRSC06358,2.20e7,3.08e7,1.09e7,1.30e7,inactive

13 consecutive reagents already listed, quoted:
Gene,DRSC id,"calcium entry signal, replicate 1 (fluorescence units)","calcium entry signal, replicate 2 (fluorescence units)","resting calcium signal, replicate 1 (fluorescence units)","resting calcium signal, replicate 2 (fluorescence units)",Call
muc (midline uncoordinated),DRSC02832,4.03e7,3.72e7,1.98e7,1.83e7,inactive
muc (midline uncoordinated),DRSC21940,4.28e7,6.44e7,2.04e7,3.23e7,inactive
CG17327,DRSC15225,1.99e7,2.72e7,1.01e7,4.68e7,inactive
CG5561,DRSC00688,4.59e7,5.41e7,2.08e7,2.36e7,inactive
wry (weary),DRSC00352,3.15e7,3.71e7,1.53e7,1.67e7,inactive
wry (weary),DRSC00456,3.15e7,3.78e7,1.55e7,1.79e7,inactive
wry (weary),DRSC22414,3.00e7,3.44e7,1.45e7,1.48e7,inactive
CG15117,DRSC06539,2.61e7,2.05e7,1.22e7,1.09e7,inactive
CG34136,DRSC01833,1.66e7,3.24e7,8.01e6,2.74e7,inactive
Rs1,DRSC05945,3.70e7,2.60e7,1.66e7,1.45e7,inactive
Vps35 (Vacuolar protein sorting 35),DRSC04519,2.70e7,,1.55e7,,inactive
CG13323,DRSC06360,2.09e7,3.36e7,1.07e7,1.41e7,inactive
Cyp9b1 (Cytochrome P450 9b1),DRSC07389,3.94e7,4.69e7,1.91e7,2.08e7,inactive
